From paper PMC11061230
These are yes or no findings as the source states them, for the method shown. Binding seen in cells or lysates may run through a third protein. Some entries that bind do so weakly or less than the wild type.

Chains of the proteins cited; added tags and fusions are not shown.
UniProt Q9UIH9: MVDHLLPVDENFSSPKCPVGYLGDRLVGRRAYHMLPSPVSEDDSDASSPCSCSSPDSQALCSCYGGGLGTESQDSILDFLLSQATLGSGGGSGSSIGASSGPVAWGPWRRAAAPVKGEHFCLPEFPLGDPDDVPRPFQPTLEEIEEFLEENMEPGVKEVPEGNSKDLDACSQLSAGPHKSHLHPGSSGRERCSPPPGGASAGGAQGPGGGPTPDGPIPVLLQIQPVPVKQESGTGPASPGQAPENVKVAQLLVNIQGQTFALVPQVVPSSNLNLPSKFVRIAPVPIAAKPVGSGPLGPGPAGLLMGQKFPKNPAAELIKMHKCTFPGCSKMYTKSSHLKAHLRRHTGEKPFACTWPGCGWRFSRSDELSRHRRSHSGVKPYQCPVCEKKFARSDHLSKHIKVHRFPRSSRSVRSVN

Target: T1, myocardin-related transcription factor B (MRTFB), endogenous in HASMCs (human (endogenous in HASMCs)) (UniProt Q9ULH7)
T1 sequence: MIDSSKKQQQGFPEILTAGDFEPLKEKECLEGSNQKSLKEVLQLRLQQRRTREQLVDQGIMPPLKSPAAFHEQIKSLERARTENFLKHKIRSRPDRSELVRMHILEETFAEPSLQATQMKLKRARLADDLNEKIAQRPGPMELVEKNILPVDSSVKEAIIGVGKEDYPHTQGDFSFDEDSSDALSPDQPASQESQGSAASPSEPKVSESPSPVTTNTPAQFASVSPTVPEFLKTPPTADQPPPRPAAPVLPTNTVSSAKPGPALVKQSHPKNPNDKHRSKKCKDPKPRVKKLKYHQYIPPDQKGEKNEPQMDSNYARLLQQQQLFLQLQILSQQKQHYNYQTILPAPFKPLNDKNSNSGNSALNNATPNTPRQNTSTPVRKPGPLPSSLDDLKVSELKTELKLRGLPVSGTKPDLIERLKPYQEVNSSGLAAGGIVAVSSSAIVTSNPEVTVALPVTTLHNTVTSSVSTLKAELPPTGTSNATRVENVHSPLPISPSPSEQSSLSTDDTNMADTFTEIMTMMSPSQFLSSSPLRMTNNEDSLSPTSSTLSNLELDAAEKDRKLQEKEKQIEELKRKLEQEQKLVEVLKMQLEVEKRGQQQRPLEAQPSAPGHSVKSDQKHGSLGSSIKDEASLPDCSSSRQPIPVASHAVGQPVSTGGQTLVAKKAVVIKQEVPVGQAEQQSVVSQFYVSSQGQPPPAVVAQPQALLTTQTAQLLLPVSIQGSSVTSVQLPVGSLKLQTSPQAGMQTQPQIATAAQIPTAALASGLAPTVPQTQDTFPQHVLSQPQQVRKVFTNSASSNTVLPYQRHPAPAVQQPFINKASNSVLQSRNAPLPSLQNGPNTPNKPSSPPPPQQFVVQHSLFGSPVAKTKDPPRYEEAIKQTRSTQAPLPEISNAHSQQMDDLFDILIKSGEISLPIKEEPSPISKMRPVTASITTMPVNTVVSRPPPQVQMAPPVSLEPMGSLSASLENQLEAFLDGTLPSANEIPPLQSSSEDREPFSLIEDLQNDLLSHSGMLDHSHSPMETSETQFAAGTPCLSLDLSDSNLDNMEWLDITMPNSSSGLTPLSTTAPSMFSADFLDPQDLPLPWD
Test: co-IP; HASMC lysate incubated with anti-MRTFB antibody or control IgG, then Protein A/G PLUS-beads, three washes; immunoblot with anti-KLF15 and anti-MRTFB antibodies

With “Krüppel-like factor 15 (KLF15), endogenous in HASMCs (from UniProt Q9UIH9 1-416)” the binding was “binds”.
